Source: PubChem BioAssay AID1471 (National Center for Advancing Translational Sciences (NCATS), 2008)
In all, about 230,000 compounds went through this assay and about 310 (0.13%) were called active. The inconclusive results got no clear call from the source; some entries with a clear call stand among them for comparison. Calls come from the whole dose curve; as a rule, active = well fitted activation curve with a large enough effect; inconclusive = small, poorly fitted or top-dose-only effect; inactive = no such curve, though single readings can be large or run the other way. Potencies beside an inconclusive call are fits to weak or partial responses and may not hold up.
Potency is the fitted concentration of half-maximal effect.

Assay: qHTS Multiplex Assay to Identify Dual Action Probes in a Cell Model of Huntington: Cytoprotection (ATP); note: nearly all actives have a fitted effect of over 45% in size;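 for cytoprotection (ATP increase): toxic huntingtin expression switched on by the ecdysone agonist tebufenozide; % of control where 0% means no effect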
Settings: PC12 HTT-Q103 induced, ATP luminescence, 40 h; cytoprotection (ATP increase): at 56.4 µM (top of the series) unless noted
Source text: NIH Chemical Genomics Center [NCGC]
NIH Molecular Libraries Probe Production centers Network [MLPCN]
Assay Submitter (PI): Wei Zheng
Huntington's disease is a neurodegenerative disorder caused by a trinucleotide repeat expansion in Exon 1 of the Huntingtin gene. The CAG trinucleotide encodes glutamine and polyglutamine expansions cause cell death in selective areas of the brain. Huntington polyglutamine repeats have the tendency to form aggregates which are observable in later stages of the disease. The exact nature of the aggregates, whether toxic, protective, or insignificant, is unclear.
A stable PC12 cell line containing a gene fusion of Exon 1 of the Huntingtin gene linked to GFP under the control of the inducible ecdysone promoter were used as the cell-based model of Huntington Disease for high throughput screening. Exon 1 of the Huntingtin gene contained an expansion of 103 polyglutamines (Q103) which, when expressed, caused cell death and distinct, bright GFP aggregates. The amount of cell death and the size and intensity of GFP aggregates increased over time and induction level. The cell death were quantified with a measurement of ATP content in the cells. A maximal 40-50% of cell death was observed when the Huntington gene was induced in this cell line.
We optimized this assay in a homogeneous 1536 well format. A quantitative high throughput screen (qHTS) was conducted on the PC12 cells which were induced to express the toxic fusion construct. Small molecules which prevented cell death were identified by using a luminescent ATP quantification method (Perkin Elmer's ATPlite).
PC12 cells stably containing a construct with an ecdysone inducible promoter expressing GFP fused to the exon 1 of HTTQ103 (Huntington protein which containing a 103 ployglutamine expansion) were used.
NCGC Assay Protocol Summary:
Sequence, Parameter, Description
1, Reagent, 5 uL 1500 cells/well 1536 TC treated White clear bottom plate
2, Compound, 23 nL Tebufenozide inducer (100 nM final) to all columns
3, Compound, 23 nL 40 uM to 0.5 nM Libraries
5, Reagent, 5 ul ATPLite cell death assay reagent
6, Detector, 4 sec integration with a Viewlux Luminescent
Media consisted of phenol red free DMEM + 5% equine serum (Hyclone # SH30072.03 ), 5% supplemented Bovine Calf Serum (Hyclone # SH30074.03 ), 1x pen/strep, no G418
Control columns: 1 = DMSO, 2= 2 uM teb dilns (1:1), 4 = 100 nM Teb inducer. Sample columns received 100 nM Teb.
With COc1cccc(CNC(=O)CCSCc2ccccc2F)c1 the Potency was inconclusive: 4.47 µM [activator, partial curve]. In the case of O=C(CSc1nnc(Cn2nnc(-c3ccccc3)n2)n1-c1ccccc1)Nc1ccc(F)cc1, the cytoprotection (ATP increase) is reported as inactive: -4.81% [at 10 µM]. With CC(=O)N1CCC2(CCCN(Cc3cc(C(F)(F)F)cc(C(F)(F)F)c3)C2)CC1 the Potency was inconclusive: 1.58 µM [activator, partial curve]. For COCC(C)NC(=O)C(C)Oc1ccccc1 (stereo not given), the Potency was inconclusive: 0.112 µM [activator, partial curve, poor fit]. In the case of CSc1ccccc1NC(=O)COc1ccccc1C, the Potency is reported as inconclusive: 3.55 µM [activator, single point]. In the case of Cc1ccc(-c2csc3ncnc(OCC(=O)NC(=O)NCc4ccco4)c23)cc1, the “cytoprotection (ATP increase)” value is reported as inactive: -31.3%. For Cc1ccsc1C(=O)NNC(=S)NCC(C)C, the Potency was inconclusive: 6.31 µM [activator, single point]. In the case of CCOC(=O)NC1(NCc2ccccc2)Oc2ccccc2O1, the cytoprotection (ATP increase) is reported as inactive: -33.2% [at 10 µM]. For CCN(C(=O)COC(=O)/C=C/c1ccc(S(=O)(=O)N2CCc3ccccc32)cc1)C1CCS(=O)(=O)C1 (stereo not given), the Potency was inconclusive: 1.26 µM [activator, single point]. For O=C(Cn1c2[n+](c3ccc(C(F)(F)F)cc31)CCCCC2)Nc1ccccc1, the cytoprotection (ATP increase) was inactive: -18% [at 10 µM]. With O=C(O)CSCC(=O)N1CCCN(c2nc3ccc(Cl)cc3s2)CC1 the cytoprotection (ATP increase) was inactive: 13.2% [at 10 µM]. With O=C(Nc1cccc(C(F)(F)F)c1)c1cc2c(=O)c3ccccc3oc2nc1C(F)(F)F the Potency was inconclusive: 0.562 µM [activator, single point]. For CC(=O)Nc1sc(N)nc1-c1ccccc1, the “cytoprotection (ATP increase)” value was inactive: -19.3%. With Cc1ccc(S(=O)(=O)Nc2cccnc2)cc1 the “cytoprotection (ATP increase)” value was inactive: -1.84%. In the case of COC(=O)c1ccc(C(=O)NC(=S)Nc2nc3c(s2)CCCC3)cc1, the Potency is reported as inconclusive: 0.631 µM [activator, partial curve]. For COc1ccc(NC(=S)Nc2cnc3ccccc3c2)c(OC)c1, the Potency was inconclusive: 5.01 µM [activator, partial curve, poor fit]. For O=C1CC[C@@H](CN(Cc2ccccn2)Cc2nc(-c3ccc(C(F)(F)F)cc3)no2)N1, the cytoprotection (ATP increase) was inactive: -3.75% [at 10 µM]. With Cc1ccc(S(=O)(=O)N2CCN(C(=O)c3ccccc3)C2C(C)C)cc1 (stereo not given) the Potency was inconclusive: 1.26 µM [activator, single point]. With CC(C)CCNC(=O)COC(=O)c1cc(Br)c(Br)s1 the Potency was inconclusive: 0.112 µM [activator, partial curve, poor fit]. With Cc1cccc([C@@H]2CN(C)CCc3c2cc(O)c(O)c3Cl)c1 the Potency was inconclusive: 39.8 µM [activator, single point]. For CCC1=Nc2cc(C(=O)NCc3ccco3)ccc2Sc2ccccc21, the cytoprotection (ATP increase) was inactive: -46% [at 10 µM]. With Cc1cc(NC(=O)/C=C/C(=O)N(CC(=O)NC2CCCC2)c2cccc3ccccc23)no1 the Potency was inconclusive: 15.8 µM [activator, partial curve]. In the case of COc1ccc(NC(=O)/C(C#N)=C\C=C\c2ccco2)cc1, the Potency is reported as inconclusive: 1.26 µM [activator, single point]. With O=C1CN(C(=O)COC(=O)c2cccnc2Cl)c2ccccc2N1 the Potency was inconclusive: 6.31 µM [activator, single point]. For Cn1cc(SCC(=O)N2CCN(c3ccccc3)CC2)c2ccccc21, the Potency was inconclusive: 4.47 µM [activator, partial curve]. With COC(=O)N1CCC2(CCCN(Cc3nccs3)C2)CC1 the Potency was inconclusive: 0.794 µM [activator, full curve, poor fit]. In the case of CCCCn1c(NC(=S)Nc2ccccc2)nc2ccccc21, the Potency is reported as inconclusive: 4.47 µM [activator, single point]. In the case of CCc1[nH]c(=O)[nH]c1C(C)S(=O)(=O)c1ccc(C)cc1 (stereo not given), the “cytoprotection (ATP increase)” value is reported as inactive: 14%. With COc1cccc(-c2ccc3ncnc(NCc4ccc(OC)cc4OC)c3c2)c1 the “cytoprotection (ATP increase)” value was inactive: -167%. For Cc1cc(C2C(C#N)=C(N)Oc3n[nH]c(C)c32)c(C)s1 (stereo not given), the “cytoprotection (ATP increase)” value was inactive: 10.3%. In the case of CN(C)CC/C=C1\c2ccccc2CSc2ccccc21, the Potency is reported as inconclusive: 2.82 µM [activator, single point]. For COc1ccc(-c2nc3c4ccccc4[nH]c(=O)n3n2)cc1, the “cytoprotection (ATP increase)” value was inactive: -71.9%. With COc1ccccc1C1CC(=O)Nc2cc3c(cc21)OCCO3 (stereo not given) the cytoprotection (ATP increase) was inactive: -46.4% [at 10 µM]. In the case of O=C(CCCc1nc2ccccc2s1)NC(c1ccccc1)c1ccccc1, the cytoprotection (ATP increase) is reported as inactive: 12.3% [at 10 µM]. For COc1ccc(N(CC(=O)N/N=C(\C)CCc2ccccc2)S(=O)(=O)c2ccc(C)cc2)cc1, the Potency was active: 3.55 µM. With CN(Cc1ccccc1)C(=O)c1ccc2c(c1)OCO2 the cytoprotection (ATP increase) was inactive: -14% [at 10 µM]. For O=C(/C=C/c1cccs1)NC(=S)NNC(=O)Cc1cccs1, the Potency was inconclusive: 5.62 µM [activator, single point]. In the case of CCCCN1C(=O)NC(NC(=O)c2ccco2)(C(F)(F)F)C1=O (stereo not given), the “cytoprotection (ATP increase)” value is reported as inactive: -8.09%. With CCCCOC(=O)c1ccc(NC(=O)C(=O)NCc2ccco2)cc1 the Potency was inconclusive: 35.5 µM [activator, single point]. In the case of CC(C)CCNC(=O)CCn1c(=S)oc2ccccc21, the “cytoprotection (ATP increase)” value is reported as inactive: -35.6%. In the case of Cc1ccc(/C=C/C(O)=C2/C(=O)N(C)C3(C)CC2c2ccccc2O3)cc1 (stereo not given), the Potency is reported as inconclusive: 25.1 µM [activator, single point]. With COc1ccc(C2Nc3ccccc3C(=O)N2NS(=O)(=O)c2ccccc2)cc1 (stereo not given) the Potency was inconclusive: 0.112 µM [activator, full curve, poor fit]. In the case of O=c1[nH]sc2ccccc12, the Potency is reported as inconclusive: 31.6 µM [activator, partial curve]. For CC1CCCN(CC(=O)Nc2ccc(S(=O)(=O)N3CCCCC3)cc2)C1 (stereo not given), the Potency was inconclusive: 3.55 µM [activator, partial curve]. In the case of CCCCC1=CC2=C(OC(C)=O)C(=O)C(C)(OC(=O)CCC(=O)OC)C(=O)C2=CO1 (stereo not given), the Potency is reported as inconclusive: 0.562 µM [activator, full curve, poor fit]. In the case of CC(=O)Nc1ccc(C(C#N)c2ccccc2)cc1 (stereo not given), the cytoprotection (ATP increase) is reported as inactive: 6.88% [at 10 µM]. For Cc1ccccc1-c1cc(Nc2ccccc2)ncn1, the Potency was inconclusive: 35.5 µM [activator, single point]. In the case of CCOC(=O)Cc1csc(NC(=O)COc2ccc(C)c(C)c2)n1, the Potency is reported as inconclusive: 2.51 µM [activator, single point]. For O=S(=O)(CC(CN1CCCCC1)N1CCCCC1)c1ccccc1 (stereo not given), the Potency was inconclusive: 6.31 µM [activator, single point]. For O=C(c1ccccc1)c1coc2ccc(O)c(Cl)c12, the cytoprotection (ATP increase) was inactive: -29.3% [at 0.074 µM]. In the case of Cc1ccccc1Nc1nnc(SCc2cc([N+](=O)[O-])cc3c2OCOC3)s1, the “cytoprotection (ATP increase)” value is reported as inactive: -28%. With CC(C)(S)[C@@H](N)C(=O)O the Potency was inconclusive: 0.112 µM [activator, full curve, poor fit]. For CN1CCN(C(=O)CSc2nc(-c3ccco3)cc(C(F)(F)F)n2)CC1, the Potency was inconclusive: 35.5 µM [activator, single point]. With O=C(Nc1ccc(N2CCCC2)c(Cl)c1)c1ccc([N+](=O)[O-])o1 the Potency was inconclusive: 0.112 µM [activator, full curve, poor fit]. With Cc1ccc(Cl)c(NC(=O)CCl)c1Cl the cytoprotection (ATP increase) was inactive: 25.7% [at 10 µM]. In the case of Cc1cc(C)n2cc(CSc3ccccn3)nc2n1, the Potency is reported as inconclusive: 0.0056 µM [activator, partial curve, poor fit]. For COC(=O)C1(C(=O)OC)CC(CO)C(=O)[C@H]1c1ccccc1 (stereo not given in full), the Potency was inconclusive: 10 µM [activator, partial curve, poor fit]. With CCC(=O)NC(=S)NNC(=O)c1ccc(O)cc1 the Potency was inconclusive: 5.62 µM [activator, single point]. In the case of O=C(NCc1ccco1)c1cc([N+](=O)[O-])ccc1N1CCOCC1, the Potency is reported as inconclusive: 5.62 µM [activator, single point]. For CN(C)S(=O)(=O)c1cccc(NC(=S)N2CCc3ccccc32)c1, the “cytoprotection (ATP increase)” value was inactive: -4.76%. For Cc1nc(N2CCCCC2)sc1C(=O)c1ccc(Cl)c([N+](=O)[O-])c1, the Potency was inconclusive: 31.6 µM [activator, single point]. In the case of O=Nc1c(O)n(Cc2cccc(C(F)(F)F)c2)c2ccccc12, the Potency is reported as inconclusive: 2.51 µM [activator, partial curve, poor fit]. For O=C(N/N=C/c1ccco1)c1cc(-c2ccccc2)n[nH]1, the Potency was inconclusive: 6.31 µM [activator, single point]. In the case of CC(=O)N[C@@H](CC(=O)O)C(=O)O, the Potency is reported as inconclusive: 0.251 µM [activator, partial curve, poor fit]. In the case of CC(C)(C)OC(=O)[C@H](Cc1ccccc1)NC(=O)c1nc[nH]c1C(=O)N[C@@H](Cc1ccccc1)C(=O)OC(C)(C)C, the cytoprotection (ATP increase) is reported as inactive: 14.8% [at 10 µM]. With COc1cc2[nH]c(=S)n(C3CCN(Cc4ccccc4)CC3)c(=O)c2cc1OC the Potency was inconclusive: 20 µM [activator, single point]. With Oc1ccccc1/C=N/Nc1nc2ccccc2o1 the cytoprotection (ATP increase) was inactive: -75.2% [at 10 µM]. In the case of CCOC(=O)c1sc(NC(=O)c2ccncc2)nc1C, the Potency is reported as inconclusive: 4.47 µM [activator, single point]. In the case of C=CCN(c1ccccc1Cl)S(=O)(=O)c1cccc(C(=O)NCCc2ccc(OC)cc2)c1, the Potency is reported as inconclusive: 0.708 µM [activator, single point]. In the case of COc1ccc(-c2noc(CCC(=O)NCc3cc(Br)ccc3OC)n2)cc1, the Potency is reported as inconclusive: 3.55 µM [activator, single point].
